These results are taken from the RNAGym collection of RNA variant scans (doi:10.1126/science.aae0568).

Variants at the floor of the assay are shown more often than the library holds them.

B1: tRNA (parent)
chain: GUUCCGUUGGCGUAAUGGUAACGCGUCUCCCUCCUAAGGAGAAGACUGCGGGUUCGAGUCCCGUACGGAACG

Variants of B1 are the subject of this series. The series is described as follows: yeast fitness relative to wild type (ratio to wild type); higher = fitter; tRNA-Arg(CCU), competitive growth, 37 C, YPD. In a few lines:
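Changes in genotype frequencies gave Darwinian fitness relative to wild type. Frequencies were read by 100-nucleotide paired-end sequencing of gene amplicons before and after pooled Saccharomyces cerevisiae strains, carrying tRNA-Arg(CCU) gene variants at the native locus, were competed in YPD at 37°C for 24 hours in six replicates. A genotype was kept only with ≥ 100 starting reads, and estimates < 0.5 were set to 0.5.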
With GUUCCGUUGGCGUGAUGGUAACGCGUCUCCCUUCUAAGGCGAAGCCUGCGGGUUCGAGUCCCGUACGGAACG, the yeast fitness is not above 0.5.
Then GUUCCGUUGGCGUAAUGGUAACGCGUGUCCCUCCUAAGGAGAAGACUGUGGGUUCGAGUCCCGUAGGGAACG, with not above 0.5; and GCUCUGUUGGGGUAAUGGUAACGCGUCUCCCUCCUAAGGAGAAGACUGCGGGUUCGAGUCCCGUACGGAACG, with not above 0.5.
Then GUUCCGUUAGCGUAAUGGUAACGCGUCUCCCUCCUAAGGAGAAGACUGCGGGUUCGAAUCCCGUACGGAACG, with 0.918; and GUUCCGUUGGCGUGAUGGUAACGCGUGUCCCUCCUAAGGAGAAGACUGCGGGUUCGAGUCCCGUACGGAACG, with 0.562.
Then GUUCCGUUGGCGUACUGGUAACGCGUCUUCCUCCUAAGGAGAAGACUGCGGGUUCGAGUCCCGUACGGCACG, with not above 0.5.
For GUUCGGUUGGUGUAAUGGUAACGCCUCUCCCUCCUAAGGAGAAGACUGCGGUUUCGAGUCCCGUACGGAACG, the yeast fitness was 0.618.
To GUUCCGUUGGCGUAAUGGUAACGCGUCUCCCUCCUAAGGAGAAGACUGCGGGUUCGCGUCCCGUAGGGAACG belongs not above 0.5.
Then GGUCCGUUGGCGUAAUGGUAACGCGUAUCCCUCGUAAGGAGAAGACUGCGGGUUCGAGUCCCGUGCGGAACG, with not above 0.5.
As to GUUCAGUUGGCGUUAUGGUAACGCGUCUCCGUCCUAAGGAGAAGACUGCGGGUUCGAGUCCCAUACGGAACG, the yeast fitness is not above 0.5.
As for GCUGCGUUGGCGUAAUGGUAACGCGUCUCCCUCCUAGGGAGAAAACUGCGGGUUCGAGUCCCGUACGGAACG, the yeast fitness is not above 0.5.
To GUUCCGUUGGCGUAAUGGUAACGCGUCUUCCUCCUAAAGAGAAGACUCCGGGUUCGGGUCCCGUACGGAACG belongs not above 0.5; to GUUACGUUGGCGUAAUGGUAACGCGUGUGCCUCCUAAGGAGCAGACUGCGGGUUAGAGUCCCGUACGGAACG, not above 0.5; to GUUCCAUUGGCGUAAUGGUUACGCAUCUCCCUCCUAAGGAGAAGACUGCGGGUUCGAGUCCCGUAUGGAACG, not above 0.5.
To GUUCCGUUGGCGUAAUGGUAACGCGUGUCCUUCGUAGGGAGAAGACUGCGAGUUCAAGUCCCGUACCGAACG belongs not above 0.5; to GUUCGGUUGGCGUAAUGGUAACGCGUCUUCCACCUAUCGAGAAGACUGCGGGUUCGAGUCCCGUACGGAACG, not above 0.5.
Then GUUCCGUUGGAGUAAUGGUAGCGCGUCUCCCUCCUAAGGAGAAGACUGCGGGUUCGAGUCUCGUACGGAACG, with not above 0.5.
With GUUCCGUUGGAGUAAUGGUAACGCGUCUCCCUCCUAGGGAGAAGACUGGGGGUUCGAGUCCCGUACGGAACG, the yeast fitness was not above 0.5.
Then GUUCUGUUGGCGUAAUGGUAACGAGUCUCUCUCCUAAGGAGAAGACUGCGGGUUCGAGUCCUGUACGGAACG, with not above 0.5; and GUUCCGUUGGCGUACUGGUAACGCGUUUCCCUUCUAAGGAGAAGACUGCGAGUUCGAGUCCCGUACAGAACG, with not above 0.5; and GUUUCGUUGACGUAAUGGUAACGCAUCUCCCUCCGAAGGAGAAGACUGCGGGUUCGAGUCCCGUACGGAACG, with not above 0.5.
To GUUCCGUUGGCGUAAUGGUAACGCGUCUCCCUCCUAAGGAGAUGACUGCGGGUUCGAGUCCCGUGUGGAACG belongs 0.794; to GUUCCGUUGGCGUAAUGGUAACGCGUGUCCCUCCUAAGGAGAAGACUGCGAGUUCGAGUCCCGUACGGAACG, not above 0.5.
Then GUUCCGUUGGCGUAAUGGUAACGCGUCUCCGUCCUAAGGAGAAGACUGCGGGUUCGGGUCCCGUGCGGAGCG, with not above 0.5; and GUUCGGUUGGCGUAAUGGUAACGCGCCUCCCUCGUAAGGAGAAGACUGCGGGUUCGAGUCCCGUACGGAACG, with not above 0.5; and GUUCCCUUGGGGUACUGGUAACGCCUGUCGCUCCUAACGAGAAGACUGCGGGUUCGAGUGCCGUACGGAGCG, with not above 0.5.
GUUCCGUUGGCGUAAUGGUAACGCGUCUCCCUCCUAAGGAGAAGACUGGGGGUUCGAGGCCCGUACGGAACG: the yeast fitness was 0.635.
As to GUUCCGAUGGCGUAAUGGUACCGCGUCUCCCUCCUCAGGAGAAGACUGCGGGUUCGAGUCCCGUACGGAACG, the yeast fitness was not above 0.5.
To GUUCCGUUGGCGUAAUGGUUACGCGUCUCUCUCCUAAGGAGAAGACUGCGGGUUCGAGUCCCGUAUGGAACG belongs not above 0.5.
To GUUCUGUUGGCGUAAUGGUAACGCGUCUCCCUCCUAAGGAGUAGACUGCGGGUUCGCGUCUCGUUCGGAACG belongs not above 0.5.
On to GUUCCGUUGGCGUAAUGGUACCGCGUCUCCUUCCUAAACAGAAGACUGCGGGUUCGGGUCCCGUACGGAACG, for which the yeast fitness was not above 0.5.
Take GUUCCGUAGGCGUAAAGGCAACGCGUCUCCCUCCUAAGGAGAAGACUGCGGGUUCGCGUCCCGUACGGAACG: the yeast fitness was not above 0.5.
To GUUUCGUUGGCGUAAAGGUCACGCGUCUCCCUCCUAAGGAGAAGACUGCGGGUACGAGUCCCGUACGGAACG belongs not above 0.5; to GUUCCGUUGGCGUAAUACUAACGCGUCUCCCUCCUAAGCAGAAGACUGCGGGUUCGAGUCCCGUUCGGAACG, not above 0.5; to GUUCCGUUGCCGUAAUGGUAAAGGGUCUCCCUCCUAAGGAGAAGACUGCGGGUUCGUGUCCCGUACGGAACG, not above 0.5.
To GUUCCGUUGACGUAGUGGUAACGCGUCUCCCUCGUAAGGAGAAGACUGCGGGUUCGAGUCCCGUACGGAACG belongs not above 0.5.
Then GUUGCGUGGGCGUAAUGGUAACGGGUCUCCCUCCUAAGGAGAAGACUGCGGGUUCGAGUCCCGUACGGAACG, with not above 0.5.
As for GUUCCGUUGGCGUAAUGGUAACGCGUCUCCCUCCUAAGGAGAAGACUGCGGCUUCGAGUGCCGUACGGAACG, the yeast fitness is not above 0.5.
